Measurements from the odorant receptor screen of Mainland et al. (2015).
“And” between values parts separate entries of the source, which are not always exact repeats. Equal entries are not always repeated. The list shows a part of the results. Single wells; the ratio to wells without odorant was worked out here, and repeats agree poorly.

Key:
Assay in all cases: odorant receptor activation (CRE luciferase / Renilla) (fold of no-odor wells); higher = more activation
Conditions in all cases: 100 µM
[1] = tested on: OR8G5 clone 1493
[2] = tested on: OR8H1 clone 1388
[3] = tested on: OR8H2 A105V/I154M/V158L/Y169C/D170Y/Y259H/V284M clone 1214
[4] = tested on: OR8H3 P137S clone 1215
[5] = tested on: OR8I2 clone 1213
[6] = tested on: OR8J1 Y120C clone 1500
[7] = tested on: OR8J3 clone 1149
[8] = tested on: OR8K1 clone 1431
[9] = tested on: OR8K3 L122R clone 1195
[10] = tested on: OR8K5 clone 1150
[11] = tested on: OR8S1 M48V/L82P/R128C/A198T clone 1279
[12] = tested on: OR8U1 clone 1242
[13] = tested on: OR8U8 clone 1499
[14] = tested on: OR8U9 clone 1439
[15] = tested on: OR9A2 clone 1080
[16] = tested on: OR9A4 clone 1081
[17] = tested on: OR9G1 clone 1111
[18] = tested on: OR9G4 N191D clone 1109
[19] = tested on: OR9G9 clone 1170
[20] = tested on: OR9I1 clone 1180

`CS` [methanethiol] gave an odorant receptor activation [1] of 0.982, an odorant receptor activation [2] of 1.15 and an odorant receptor activation [3] of 1.01. The odorant receptor activation [4] was 1.02, the odorant receptor activation [5] was 1.29 and the odorant receptor activation [6] was 0.964. It also gave an odorant receptor activation [7] of 0.881, an odorant receptor activation [8] of 0.977 and an odorant receptor activation [9] of 0.895. The odorant receptor activation [10] was 0.858, the odorant receptor activation [11] was 0.84 and the odorant receptor activation [12] was 0.912. It also gave an odorant receptor activation [13] of 0.903, an odorant receptor activation [14] of 1.23 and an odorant receptor activation [15] of 1.13. The odorant receptor activation [16] was 1.09, the odorant receptor activation [17] was 1.1 and the odorant receptor activation [18] was 1.22. It also gave an odorant receptor activation [19] of 0.988 and an odorant receptor activation [20] of 0.925.

With `CCOc1cc(C=O)ccc1O` [ethyl vanillin] the odorant receptor activation [1] was 0.919 and 2.2 and 0.978, the odorant receptor activation [2] was 1.6 and 0.975 and the odorant receptor activation [3] was 1.65 and 1.21. For the same molecule, the odorant receptor activation [4] was 1.34 and 0.974, the odorant receptor activation [5] was 1.27 and 1.08 and the odorant receptor activation [6] was 1.21 and 2.33 and 1.32. The odorant receptor activation [7] was 2.31 and 1.13, the odorant receptor activation [8] was 1.22 and the odorant receptor activation [9] was 1.56 and 1.2. For the same molecule, the odorant receptor activation [10] was 1.39 and 1.23, the odorant receptor activation [11] was 1.02 and the odorant receptor activation [12] was 0.541 and 1.38. The odorant receptor activation [13] was 1.27 and 2.39 and 1.25, the odorant receptor activation [14] was 1.09 and 1.24 and the odorant receptor activation [15] was 1.17. For the same molecule, the odorant receptor activation [16] was 2 and 1.19, the odorant receptor activation [17] was 1.67 and 1.29 and the odorant receptor activation [18] was 0.903 and 1.15. For the same molecule, the odorant receptor activation [19] was 1.31 and 1.04 and the odorant receptor activation [20] was 1.62 and 1.16.

`CCCCOC(C)=O` [butyl acetate] showed an odorant receptor activation [1] of 1.12, an odorant receptor activation [2] of 0.2 and an odorant receptor activation [3] of 0.919. It also gave an odorant receptor activation [4] of 1.05, an odorant receptor activation [5] of 0.871 and an odorant receptor activation [6] of 1.36. For the same molecule, the odorant receptor activation [7] was 1.01, the odorant receptor activation [8] was 0.107 and the odorant receptor activation [9] was 1.02. For the same molecule, the odorant receptor activation [10] was 0.91, the odorant receptor activation [11] was 0.746 and the odorant receptor activation [12] was 1.12. For the same molecule, the odorant receptor activation [13] was 1.18, the odorant receptor activation [14] was 0.125 and the odorant receptor activation [15] was 1.36. The odorant receptor activation [16] was 1.1, the odorant receptor activation [17] was 1.01 and the odorant receptor activation [18] was 1.16. It also gave an odorant receptor activation [19] of 1.09 and an odorant receptor activation [20] of 0.829.

With `CCC(C)=O` [2-butanone] the odorant receptor activation [1] was 1.05, the odorant receptor activation [2] was 1.5 and the odorant receptor activation [3] was 0.769. It also gave an odorant receptor activation [4] of 0.594, an odorant receptor activation [5] of 0.903 and an odorant receptor activation [6] of 0.91. For the same molecule, the odorant receptor activation [7] was 0.946, the odorant receptor activation [8] was 0.906 and the odorant receptor activation [9] was 0.636. For the same molecule, the odorant receptor activation [10] was 0.717, the odorant receptor activation [11] was 1.17 and the odorant receptor activation [12] was 1.32. For the same molecule, the odorant receptor activation [13] was 1.07, the odorant receptor activation [14] was 1.06 and the odorant receptor activation [15] was 7.26. For the same molecule, the odorant receptor activation [16] was 2.71, the odorant receptor activation [17] was 26.3 and the odorant receptor activation [18] was 4.02. It also gave an odorant receptor activation [19] of 1.17 and an odorant receptor activation [20] of 1.42.
